Results are given in words; binding and its absence hold for the method and conditions named. In cells and extracts the contact can be indirect. A result given as binding can be weak or reduced; the word gives no strength.
Biological target: HA-tagged LRP10^2DXXAA (LRP10 double DXXLL trafficking mutant) (human) (UniProt Q7Z4F1)
Test: co-IP; lysates of transfected HEK cells (both partners co-expressed, or LRP10-HA alone with endogenous APP); 50 mM Tris pH 7.4, 150 mM NaCl, 1% NP-40; precipitation with anti-HA, anti-APP or anti-FLAG overnight at 4°C, protein A- or G-Sepharose; immunoblot

Chains of the proteins cited; added tags and fusions are not shown. Lines headed by an entry give the natural chain unless they say otherwise; changes in a name come on top.
UniProt Q7Z4F1: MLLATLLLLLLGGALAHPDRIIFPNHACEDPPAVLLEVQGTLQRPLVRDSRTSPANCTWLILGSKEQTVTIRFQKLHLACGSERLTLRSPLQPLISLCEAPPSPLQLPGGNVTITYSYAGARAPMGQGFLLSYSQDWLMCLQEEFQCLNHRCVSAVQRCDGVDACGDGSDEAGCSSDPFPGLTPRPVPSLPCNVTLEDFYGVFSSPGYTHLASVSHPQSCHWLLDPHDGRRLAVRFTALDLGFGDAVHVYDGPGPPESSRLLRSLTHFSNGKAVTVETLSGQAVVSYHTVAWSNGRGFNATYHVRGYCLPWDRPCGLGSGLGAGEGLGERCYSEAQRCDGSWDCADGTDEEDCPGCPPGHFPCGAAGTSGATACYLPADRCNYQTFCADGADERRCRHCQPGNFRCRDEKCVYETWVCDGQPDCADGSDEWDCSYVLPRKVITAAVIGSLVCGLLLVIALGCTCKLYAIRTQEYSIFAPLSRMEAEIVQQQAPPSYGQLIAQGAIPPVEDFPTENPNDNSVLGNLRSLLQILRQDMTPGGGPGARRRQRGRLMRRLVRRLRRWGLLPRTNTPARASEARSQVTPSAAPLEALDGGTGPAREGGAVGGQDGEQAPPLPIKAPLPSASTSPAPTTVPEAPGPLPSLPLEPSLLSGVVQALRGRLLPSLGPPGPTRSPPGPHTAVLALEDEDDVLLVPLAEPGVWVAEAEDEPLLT

- binding: binds
Substance: untagged APP695 (from UniProt P05067-4 18-695)

From publication PMC3520120
